Laboratory results taken from US20200325212A1.
These are yes or no findings as the source states them, for the method shown. Some entries that bind do so weakly or less than the wild type. For part of these data: Sequences can lack the tags named with a protein.

Assays:
[1] = target: CTLA4-Fc variant T51H (human); test: analytical SEC (relative A230) of an equimolar mixture of mLCN2-Fc and CTLA4Fc T51H
[2] = target: CTLA4-Fc variant T51H (human); test: analytical SEC, 1:1 mix
[3] = target: CTLA4-Fc variant E31S (human); test: analytical SEC, 1:1 mix
[4] = target: CTLA4-Fc variant E31A R33A (human); test: analytical SEC, 1:1 mix
[5] = target: CTLA4-Fc variant Y52F (human); test: analytical SEC, 1:1 mix
[6] = target: CTLA4-Fc variant E31S (human); test: analytical SEC (relative A230) of an equimolar mixture of mLCN2-Fc and CTLA4Fc E31S
[7] = target: CTLA4-Fc variant E31A R33A (human); test: analytical SEC (relative A230) of an equimolar mixture of mLCN2-Fc and CTLA4Fc E31A R33A
[8] = target: CTLA4-Fc variant Y52F (human); test: analytical SEC (relative A230) of an equimolar mixture of mLCN2-Fc and CTLA4Fc Y52F
[9] = target: CTLA4-Fc variant Y52F (human); test: SPR (Table 3)

Measured: binding

B1: mLCN2-Fc (bivalent m-Lcn2 fused to human IgG1 Fc) (Fc fusion, not shown: a dimerising Fc or GST)
chain: QDSTSDLIPAPPLSKVPLQQNFQDNQFHGKWYVVGLAGNRILRDDQHPMNMYATIYELKEDKSYNVTSVISSHKKCEYTIATFVPGSQPGEFTLGNIKSYGDKTSYLVRVVSTDYNQYAVVFFKLAEDNAEFFAITIYGRTKELASELKENFIRFSKSLGLPENHIVFPVPIDQCIDG
binds: [1] | [2] | [3] | [4] | [5] | [6] | [7] | [8]

B2: modified lipocalin2 (mLcn2), monovalent (designed binder)
chain: QDSTSDLIPAPPLSKVPLQQNFQDNQFHGKWYVVGLAGNRILRDDQHPMNMYATIYELKEDKSYNVTSVISSHKKCEYTIATFVPGSQPGEFTLGNIKSYGDKTSYLVRVVSTDYNQYAVVFFKLAEDNAEFFAITIYGRTKELASELKENFIRFSKSLGLPENHIVFPVPIDQCIDG
binds: [9]
